Results published in US5668265.
The exact form of at least one protein or probe is not confirmed. The comparison behind a weaker result is the experiment's own reference, which may not be listed here.

Tested on: alpha-thrombin (Homo sapiens)
Experiment: binding assay
Details: single copy does not have high affinity for thrombin; thrombin species and method not stated; purified native protein; protein details: human alpha thrombin; single-stranded DNA; variant of Compound 10 (consensus thrombin aptamer)

**Q.** Does GGTTGGT [single copy of SEQ ID NO:1] bind?
**A.** binds more weakly
